# In all, about 33,000 sequences were measured (“E-score (-0.5 to 0.5)”: median about -0.0014, highest 2% from about 0.25 on). The list shows a part of the results.
# Molecular target: T1, Cad1 (UniProt P24813)
# T1 sequence: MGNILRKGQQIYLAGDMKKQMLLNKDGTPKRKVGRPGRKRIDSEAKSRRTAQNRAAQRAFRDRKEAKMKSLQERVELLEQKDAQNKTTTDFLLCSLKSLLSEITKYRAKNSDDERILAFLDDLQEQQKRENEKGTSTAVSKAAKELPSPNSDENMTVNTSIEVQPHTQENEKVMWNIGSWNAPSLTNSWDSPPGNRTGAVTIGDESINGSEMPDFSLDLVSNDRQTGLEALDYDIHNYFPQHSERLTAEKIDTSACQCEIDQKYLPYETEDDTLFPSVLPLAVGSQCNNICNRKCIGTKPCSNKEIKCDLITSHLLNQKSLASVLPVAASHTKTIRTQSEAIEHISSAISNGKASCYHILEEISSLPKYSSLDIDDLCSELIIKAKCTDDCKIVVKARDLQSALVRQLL
# Assay: PBM E-score (8-mer binding enrichment) (E-score (-0.5 to 0.5)); higher = stronger / more preferred TF binding
# Conditions: protein concentration: 100 nM; construct: GST-full length
# Method: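 Universal 'all 10-mer' protein binding microarrays (Agilent AMADID 015681) probed with GST-tagged S. cerevisiae TFs (full-length or DBD) made by in vitro transcription/translation (PURExpress), about 100-200 nM. Bound TF was detected with fluorescent anti-GST. Each ungapped 8-mer (which stands for itself and its reverse complement) is scored by the PBM enrichment score (E-score), a modified Wilcoxon-Mann-Whitney statistic from -0.5 to +0.5, computed with the Universal PBM Analysis Suite. Scale: above 0.35 generally sequence-specific binding.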
row,Sequence,PBM E-score
1,CGGACATA,0.117
2,ATACGGCC,0.0469
3,CCATCTGC,-0.00947
4,AACCAGAC,-0.0829
5,GCCAAATA,0.0976
6,GCCGATCC,-0.141
7,GTGGTGCA,-0.087
8,AGTGCAAC,-0.00855
9,CGCAATAC,0.228
10,GAGCATCC,-0.169
11,AAACGCAA,0.191
12,GTGCTCGA,-0.0706
13,GTGTGGTA,-0.152
14,CCCAGTGA,-0.221
15,GACTTTGA,-0.00841
16,ATAATATC,0.196
17,AAGTCGGG,0.027
18,ACCGCCCG,-0.241
19,CCCAGTTA,-0.258
20,CACATGTA,0.109
21,AGTCTCAT,-0.0485
22,CTGTATTA,0.0709
23,CGTTGGTA,0.141
24,CTCGACAC,0.162
25,CTATTGGA,0.0791

row,Sequence,PBM E-score
1,CTAGGGAA,-0.105
2,GGATAGTA,0.122
3,CTGATTAC,0.334
4,GTCACCGA,0.0135
5,CCGTAGGC,-0.152
6,GACAGCCC,0.0111
7,ACATGCAC,-0.0512
8,TATTAGCA,0.108
9,CTATCTGC,-0.0269
10,GGGAAATA,0.00695
11,CCCGCAGC,-0.0683
12,GCCACGTA,-0.153
13,GATCGCAA,0.15
14,CAACGGCA,-0.128
15,GGCAGTTA,-0.0634
16,AAATGAAC,0.075
17,CATGCTTC,-0.146
18,CGCGGTCC,-0.164
19,CAGCTACG,-0.184
20,GTCATTAA,0.226
21,GACAGATA,0.0715
22,CCTAGCAG,-0.177
23,CTACGCAA,-0.0871
24,AGTCTTAT,0.0391
25,AGTTTACG,0.0267

row,Sequence,PBM E-score
1,GTTGGTTA,0.0706
2,AGCCACGA,-0.108
3,AGTGATGG,-0.0863
4,CACCTGGG,-0.211
5,AGGATAAC,0.037
6,ATCGATAC,0.165
7,ACTTAGTG,-0.142
8,AGGCCATA,-0.101
9,TAGAAAAA,-0.11
10,AACTATGA,-0.00365
11,GAACGTCC,0.00372
12,CCATCGAC,0.00288
13,ATGGTAAC,0.185
14,ATAGGGAT,-0.0718
15,CACTGGAC,0.124
16,GCGCCTGA,0.181
17,AAGCACCG,-0.146
18,AGTTCATA,0.101
19,CTTGCTTC,0.0497
20,GCGAGGAC,-0.205
21,CGACGGAA,0.0731
22,GTCACAAC,0.0393
23,CCACACAC,0.0882
24,CCCCTAGA,-0.17
25,AGAAATCA,0.109

row,Sequence,PBM E-score
1,ACCGAGGC,-0.188
2,GACGGTCA,-0.121
3,GGTCTCGA,0.061
4,ATGGAAAT,0.0495
5,GGGATACA,-0.104
6,GGCAGCGA,-0.162
7,AACGCGCG,0.282
8,CTCCGGAC,0.00021
9,CGCTTCGA,0.0454
10,CAGACGAA,0.202
11,GGCCAGAA,0.079
12,AAACCGCG,0.271
13,CGAGCAAA,0.0514
14,CCGAGATA,0.181
15,CCTCGGCA,0.0774
16,ACAACAAA,0.029
17,CTCTGGAA,-0.0601
18,ACTACTTA,0.0237
19,TCCCGGGA,0.248
20,CTCTTATA,0.158
21,AGATGCAG,0.117
22,AATTATCT,0.282
23,ATACTTTG,0.0521
24,GGTCGTGA,-0.0496
25,GAGAACCC,-0.184

row,Sequence,PBM E-score
1,TCAATGGA,0.0279
2,ACCTGACC,-0.238
3,AAAAACAC,0.173
4,GACCCCAC,-0.196
5,CAGTGCAC,0.0573
6,AAGAACAC,0.163
7,AAGGCTGA,-0.00348
8,AAATTGTG,-0.144
9,ACCGAACT,0.189
10,CTGGTTTC,0.0789
11,AGCACAAC,0.116
12,ATCGCTCA,-0.0243
13,ATTCGATG,0.0869
14,CCGACCGG,-0.14
15,CGATGCAA,-0.104
16,ATGACATA,0.267
17,CATAGGTA,-0.0378
18,ATTTGAGC,-0.0304
19,ACAGCCCA,0.0465
20,CAAGACGA,-0.0139
21,CTGGCGGC,-0.0548
22,ACGTTGAT,0.148
23,AGTGTGCA,0.0633
24,GTAGCGTA,0.00889
25,AGGCCACA,-0.177

row,Sequence,PBM E-score
1,ATCCCTCG,0.093
2,AGGTAATA,0.225
3,GTGGCCCA,-0.00188
4,CTGCATAA,0.0884
5,AAAGCCTT,-0.142
6,ATTCTTCG,-0.00874
7,CGTGATAA,0.137
8,GAGGCCAC,-0.048
9,AGTTCACC,0.133
10,GTTTGGTA,0.161
11,CCTCACAG,0.081
12,CAATGATA,0.0335
13,CAGCGCAG,0.0181
14,CACGCTGA,0.143
15,CAAGACCC,-0.151
16,AAGACTCG,-0.0735
17,GACGCCTA,-0.168
18,CCAGTGAA,-0.14
19,CCGCGGCG,-0.021
20,ACTTCATC,0.0633
21,GAAGGTAC,-0.0394
22,AGGTCGTG,-0.0934
23,TCCCCAAA,-0.0378
24,CGATTGTC,0.174
25,CAAAAGCC,-0.0141

row,Sequence,PBM E-score
1,AATACAGC,-0.0531
2,CTGATCGA,-0.0711
3,CGCTCACG,0.0972
4,AAGTAGAT,0.0897
5,ACGATGCG,-0.0629
6,CGTCTACC,0.0268
7,GCGGCTAC,-0.00996
8,AACGTACG,0.0612
9,ACTGCCTG,-0.0544
10,ACGTGAAT,0.153
11,GAACGGTA,0.0457
12,AGGTGGAC,-0.245
13,GTTCCGCA,0.252
14,GGTCCAGA,-0.0237
15,CGTGAATC,0.122
16,CCAGTACA,-0.142
17,ATCTTGAC,-0.106
18,AGGGGTTC,-0.287
19,AATTGGCA,-0.114
20,CGCTAGTA,0.145
21,CTGGTGGC,0.0301
22,GATGTCGC,-0.0282

# Reference: the supplement of paper PMC3334620
